Measurements from “University of Dundee, Small-Polar-MMV Screening Library” (2021), ChEMBL document CHEMBL3988442.

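Whole-cell assay for inhibitors of Mycobacterium tuberculosis growth, labelled Cornell in the record; the read-out is not stated. The concentration is filed as 10 mM, unlikely as a test dose, so the dose is not known. The record gives no direction; compounds strong in two other growth screens of this library score well above the rest, so higher reads as stronger inhibition. Of about 53,000 compounds tested this way, about 900 (1.7%) reached 50% or more in at least one test.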

Values are the deposited “Percent Effect”, in %.
The record does not define 0% and 100%; most values in the screen are far below 50% and negative numbers occur (in some assays of this library far below -100).
Compounds were drawn at random from those tested, without regard to their results.

structure,effect
Cc1nc(N(C)C)nc(C)c1NS(=O)(=O)c1ccccc1Cl,-0.0989
CS(=O)(=O)c1ccc(OCCNCc2cccc(F)c2)cc1,35.68
Cc1ncc2c(n1)CN(CC(=O)Nc1nnc(C)s1)CC2,5.592
Cc1ccsc1C1CCCCCN1Cc1cn(C)nc1C (centres undefined),32.79
CCc1cnc(CN(C)C2CCN(Cc3nnc(C4CC4)n3C)C2)o1 (centres undefined),31.65
O=C(O)C(F)(F)F.O=C(O)C(F)(F)F.[H][C@]12CCN(CC(=O)N(C)C)[C@@]1([H])CC[C@H](COCc1cccnc1)O2,28.12
CC(C)c1nc(CN(C)C(=O)c2ccc3c(c2)OCC(=O)N3)cs1,23.42
O=C(c1ccc(=O)[nH]n1)N1CCC(CN2CCOCC2)CC1,3.871
O=C(O)C(F)(F)F.[H][C@]12CCN(S(=O)(=O)C3CC3)[C@@]1([H])CCC(=O)N2CCN1CCCC1,-39.66
O=C(NC1COC2(CCN(Cc3cccs3)CC2)C1)c1ccccn1.O=C(O)C(F)(F)F (centres undefined),5.688
CCc1ncc(C(=O)N2CCN(Cc3ncccc3C)CC2)cn1,-11.49
CCc1nc(N2CCOCC2)ncc1C(=O)NC(c1cccs1)C(C)C (centres undefined),32.45
CCCN1CCCn2nc(CNS(=O)(=O)c3ccc(F)cc3)cc2C1,6.572
O=C1CCSCC(C(=O)N2CCN(C3CCCCC3)CC2)N1 (centres undefined),2.386
CC(C)n1ccnc1C1CCN(C(=O)c2ccccc2)CC1,-10.53
Cc1c[nH]nc1C1CCCN1Cc1nccn1C.O=CO (centres undefined),0.662
CC(C)(C)CC(=O)NS(=O)(=O)c1ccc(C#N)cc1C(F)(F)F,0.3905
CCCN1CCC(CC(=O)N(C)CC(=O)c2ccc(O)cc2)CC1,20.83
CCn1ccc(NS(=O)(=O)c2cccc(COC)c2)n1,-1.872
CN(C)c1ccc(CC2CCN(c3cnccn3)CC2)nn1,-4.12
Cc1nc2c(c(N3CCC4(CCCNC4=O)C3)n1)CCC2 (centres undefined),14.79
CCSc1ccc(C(=O)N2CCCCC2C(=O)NC(C)(C)C)cn1 (centres undefined),7.142
CCSCCNc1cc(C)nc2c(C)c(C)nn12,75.01
CC(C)n1nc2c(cc1=O)CN(CCOc1cccc(C#N)c1)CC2,34.74
COc1ccc(CNC(C)c2ccc(Cl)cc2)c(OC)c1OC (centres undefined),4.187
CN(C)c1ccnc(N2CCC(NCCOc3ccccc3)CC2)n1,-53.63
Cn1cnnc1S(=O)(=O)C1CCN(S(=O)(=O)c2ccc(F)c(Cl)c2)CC1,3.319
CC1=C[C@@H](CN2CCOCC2)[C@H](C(C)C)C[C@H]1Cc1nnc(C)o1,5.133
Cc1nnc(CCNC(=O)C2CC(=O)N(C(C)(C)C)C2)s1 (centres undefined),3.853
O=C(c1ccncc1)N1CCc2[nH]nc(Nc3ccccc3)c2C1,-24.78
O=C1CCCCN1Cc1cccc(NC(=O)N2CCSCC2)c1,3.795
O=C(NCc1csc2ccccc12)NCC1(O)CCSC1 (centres undefined),2.475
O=C(Cc1ccc2c(c1)CCCC2)N[C@@H]1CC[C@@H](n2ccnc2)[C@@H]1O,9.145
CC(Oc1ccccc1C(F)(F)F)C(=O)NS(=O)(=O)C(C)C (centres undefined),54.22
Cc1csc(N2CCCN(C(=O)C(C)n3ccnc3)CC2)n1 (centres undefined),26.08
O=C(c1cn(-c2cc(N3CCSCC3)ncn2)cn1)N1CCOCC1,-7.592
Cc1cc(C[S+]([O-])CC(=O)NCc2ccccc2)no1 (centres undefined),-38.77
CCc1nc(C)sc1CN1C[C@@H](C)[C@@](C)(O)C1,4.841
O=C(Nc1cccc(N2CCN(CC3CC3)CC2)c1)N1CCCC1,-24.69
Cn1ncnc1-c1ccnc(NCCCc2ccncc2)n1,-48.18
CCNC(=O)NCC1(CN2CCOCC2)CCCCC1,21.05
CC(C)Oc1cccc(C(=O)C2CCCN(S(=O)(=O)C(C)C)C2)c1 (centres undefined),11.72
COc1ccccc1CC1CCCN(CCN2CCOC2=O)C1 (centres undefined),-3.564
Cc1cc(C)n(CC2CCCN2C(=O)c2cccc3[nH]ncc23)n1 (centres undefined),0.22
Cc1cccc(OCC(O)CN2CCN(c3nccs3)CC2)c1 (centres undefined),-9.702
Cc1nc[nH]c1C(=O)N1CCC2(CN(C)C(=O)O2)C1 (centres undefined),-9.461
CCOCC(=O)NCC(Cc1cccc(F)c1)N1CCCCC1=O (centres undefined),-25.26
CN(Cc1cc2cc(F)ccc2[nH]1)c1cc(C2CCCNC2)ncn1 (centres undefined),13.11
Cc1c(NC(=O)CN2CCC(Oc3cnccn3)CC2)cnn1C,-8.053
O=C(O)C(F)(F)F.[H][C@@]12C[C@@H](C(=O)N(C)C)CN(CCOc3ccc(Cl)cc3)[C@]1([H])CCO2,-3.416
O=C(O)C(F)(F)F.[H][C@@]12CN(Cc3c(C)noc3C)C[C@]1([H])CN(C(=O)c1cnccn1)C2,19.35
CCC1COC2(CCN(C(=O)c3ccco3)CC2)C1 (centres undefined),21.68
CN(CCN1CCOCC1)S(=O)(=O)CC1CCCC1,-1.407
CC(C)(C)n1ncc(NCCc2ccccc2C(F)(F)F)c(Cl)c1=O,45.85
CC(C)C1CN(S(C)(=O)=O)CCCN1Cc1ccc(F)cc1 (centres undefined),8.225
O=C1N(c2ccccc2)Cc2n[nH]c(=O)n21,11.68

Once more, the final 7:

O=C(O)C(F)(F)F.[H][C@@]12C[C@@H](C(=O)N(C)C)CN(CCOc3ccc(Cl)cc3)[C@]1([H])CCO2 gave -3.416%.
O=C(O)C(F)(F)F.[H][C@@]12CN(Cc3c(C)noc3C)C[C@]1([H])CN(C(=O)c1cnccn1)C2 gave 19.35%.
CCC1COC2(CCN(C(=O)c3ccco3)CC2)C1 (centres undefined) gave 21.68%.
CN(CCN1CCOCC1)S(=O)(=O)CC1CCCC1 gave -1.407%.
CC(C)(C)n1ncc(NCCc2ccccc2C(F)(F)F)c(Cl)c1=O gave 45.85%.
CC(C)C1CN(S(C)(=O)=O)CCCN1Cc1ccc(F)cc1 (centres undefined) gave 8.225%.
O=C1N(c2ccccc2)Cc2n[nH]c(=O)n21 gave 11.68%.